# The campaign covered roughly 340,000 compounds. About 170 (0.05%) were called active. Inconclusive means that the source gave no clear call. Such entries were picked first, then a sample of the others. Calls follow the shape of the dose curve; as a rule, active = well fitted inhibition curve with a large enough effect in the signal ratio, with a control signal flat (not every such curve was filed as active); inconclusive = small, poorly fitted or top-dose-only effect, or effect the other way, or a change in a side signal; inactive = flat fitted curve, though single readings scatter; the % refers to the signal ratio. A potency beside an inconclusive call is a rough fit, not a confirmed value.
# Test: qHTS Assay to Find Inhibitors of Chronic Active B-Cell Receptor Signaling;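 as to activity change, negative = inhibition: plate controls were basal doxycycline-induced cells for no effect and cells given 10 µM MG132 for full effect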
# Details: ABC-DLBCL IkBa-CBG/CBR reporter, luminescence ratio (green luciferase fused to IkBa over red control in TMD8 lymphoma cells), 4 h; activity change, negative = inhibition: at 46.1 µM (top of the series) unless noted
# In short: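 Doxycycline induced both beetle luciferases in TMD8 lymphoma cells; IKK-driven degradation limits the IkappaBalpha-fused green signal, while red luminescence normalises for cell number and nonspecific effects. Compounds tested up to 46 uM, 4 hrs.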
# Potency is read from the fitted curve at half-maximal effect.
Structure (SMILES),Potency,"activity change, negative = inhibition"
COc1ccc(OCC(=O)N/N=C/c2ccc(N(C)C)cc2)cc1,"inconclusive: 10 µM [falling, partial curve, poor fit]",
CCCCNC(=S)N(CCN(CC)CC)Cc1cc2cc3c(cc2[nH]c1=O)OCCO3,,inconclusive: -22.3%
OC(COc1ccccc1Cl)CN1CCN(CC(O)COc2ccccc2Cl)CC1 (configuration not stated),"inconclusive: 20 µM [falling, single point]",
CC(C)CN1C(=S)SC(C)(C)C1n1oc(=O)n(-c2ccc(Cl)cc2)c1=O (configuration not stated),,inconclusive: 27.5%
NC(=S)N/N=C/c1ccc(-n2nncc2-c2ccc(Cl)cc2)cc1,"inconclusive: 10 µM [falling, partial curve]",
S=C(Nc1ccccc1)N1CCCCCCC1,,inconclusive: -2.65%
Cc1ccc(-c2ccc(/C=C(\C#N)C(N)=S)o2)c([N+](=O)[O-])c1,"inconclusive: 15.8 µM [falling, partial curve, poor fit]",
O=C(O)c1ccc(N/N=C/c2cc3ccccc3nc2Cl)cc1,,inconclusive: -14.8%
CS(=O)(=O)Nc1ccc(C2=NN(C(=O)c3ccccc3)C(c3cccs3)C2)cc1 (configuration not stated),,inactive
Cc1sc(NC(=O)/C=C/C(=O)O)c(C(N)=O)c1-c1ccc(C(C)(C)C)cc1,"inconclusive: 29.1 µM [falling, partial curve, poor fit]",
NC(=S)N/N=C\c1ccccc1OCc1ccccc1,"inconclusive: 29.1 µM [cytotoxic, single point]",
C[C@H]1COC(=O)[C@H](Cc2ccc(F)cc2)C/C=C\C[C@H](CC(=O)NCCO)C(=O)N1,,inactive
Cn1c(=O)cc(OCCCC(=O)N2CCN(Cc3ccc4c(c3)OCO4)CC2)c2ccccc21,,inconclusive: -0.0898%
Cc1c(CCOC(=O)C23CC4(C)CC(C)(CC(C)(C4)C2)C3)sc[n+]1CC(=O)c1ccccc1,,inconclusive: -18.4%
O=C(NC1(C(F)(F)F)C(=O)Nc2c1c(=O)[nH]c(=O)n2Cc1ccccc1)c1ccco1 (configuration not stated),,inconclusive: -4.51%
CC1CCCCN1C(=O)COC(=O)c1cc(Cl)c2c(c1)OCO2 (configuration not stated),"inconclusive: 20.6 µM [falling, partial curve, poor fit]",
CCOC(=O)c1c(C)[nH]c(C)c1S(=O)(=O)NCC1CCN(Cc2ccccc2F)CC1,,inconclusive: -21.9%
CCC1(C)Cc2c(sc3nc(SCC(=O)c4ccccc4)[nH]c(=O)c23)CO1 (configuration not stated),"inconclusive: 15.8 µM [falling, partial curve, poor fit]",
COc1ccc(-c2csc3ncnc(N4CCN(c5cccc(Cl)c5)CC4)c23)cc1,,inactive
CCOC(=O)c1ccc2c(c1)nc(-c1ccccn1)n2CC,,inconclusive: 8.74%
COc1ccc(/C=C2\SC(=O)N(CC(=O)Nc3cccnc3)C2=O)cc1OC,"inconclusive: 6.31 µM [falling, full curve]",
COc1ccc(OC)c(C(=O)/C=C/c2ccccc2C(F)(F)F)c1,"inconclusive: 11.2 µM [falling, partial curve]",
COc1cccc(C(=O)N/N=C/c2ccc(Oc3ccc([N+](=O)[O-])cn3)c(OC)c2)c1,,inconclusive: -13.6%
O=C(COc1ccccc1-c1ccccc1)N/N=C/c1ccccn1,,inconclusive: -17.2%

# A different layout for some results above.
Structure (SMILES)	Potency	activity change, negative = inhibition
CC1CCCCN1C(=O)COC(=O)c1cc(Cl)c2c(c1)OCO2 (configuration not stated)	inconclusive: 20.6 µM [falling, partial curve, poor fit]	
CCOC(=O)c1c(C)[nH]c(C)c1S(=O)(=O)NCC1CCN(Cc2ccccc2F)CC1		inconclusive: -21.9%
CCC1(C)Cc2c(sc3nc(SCC(=O)c4ccccc4)[nH]c(=O)c23)CO1 (configuration not stated)	inconclusive: 15.8 µM [falling, partial curve, poor fit]	
COc1ccc(-c2csc3ncnc(N4CCN(c5cccc(Cl)c5)CC4)c23)cc1		inactive
CCOC(=O)c1ccc2c(c1)nc(-c1ccccn1)n2CC		inconclusive: 8.74%

# Later entries

Structure (SMILES),Potency,"activity change, negative = inhibition"
CCOc1ccc2nc(NC(=O)C(CC)Sc3nc(C)cc(=O)[nH]3)sc2c1 (configuration not stated),,inconclusive: 4.32%
COCC(=O)n1cc(C(=O)OC)c2ccccc21,,inconclusive: 2.92%
COc1ccc(N=C2C(=Nc3ccc(OC)cc3)N(c3ccccc3)C(=S)N2C(=O)c2ccc(Cl)cc2)cc1,"inconclusive: 20.6 µM [rising, single point]",
CCCc1ccc(-c2cc(NC(=O)CSc3nnc(N)s3)n(-c3ccccc3)n2)cc1,,inconclusive: -0.541%
Fc1ccc(C(c2nnnn2C2CCCCC2)N2CCCC2)cc1 (configuration not stated),,inconclusive: -0.702%
CC(=O)OC[C@H]1O[C@@H](Sc2cccc3cccnc23)[C@H](OC(C)=O)[C@@H](OC(C)=O)[C@@H]1OC(C)=O,,inactive
CCOCCCn1c(SCC(=O)NCc2ccco2)nc2c(sc3ccccc32)c1=O,"inconclusive: 2.06 µM [rising, full curve, poor fit]",
COc1ccccc1CNS(=O)(=O)c1cc(CN2C(=O)c3cccnc3C2=O)ccc1OC,,inactive
COc1cc(OC)cc(C(=O)N[C@H](C(=O)OCC(=O)Nc2ccc(C)cc2C)C(C)C)c1,,inconclusive: 1.89%
CC(C)(C)c1ccc(/C=C/C(=O)Nc2cccnc2)cc1,,inactive
Cc1nc(N2CCN(c3ccccc3)CC2)[nH]c(=O)c1Cc1cccc2ccccc12,,inconclusive: -21.1%
COc1ccc(CNC(=O)CSC(=S)N2CCCC2)cc1,"inconclusive: 2.31 µM [falling, partial curve]",
COc1ccccc1CC(=O)Nc1ccc(-c2noc(COc3cccc(C)c3C)n2)cc1,"inconclusive: 11.6 µM [falling, partial curve]",
CCOC(=O)C1=C(C)NC(=S)NC1c1ccc(OCC(=O)N2CCCCC2)cc1 (configuration not stated),,inactive
CCN(C(=O)COC(=O)c1cccnc1SC)C1CCS(=O)(=O)C1 (configuration not stated),"inconclusive: 23.1 µM [falling, partial curve]",
CCOC(=O)N1CCN(c2ccc(S(=O)(=O)N3CCC(C)CC3)cc2[N+](=O)[O-])CC1,,inactive
CN(C)C(=O)c1ccc2c(c1[N+](=O)[O-])C(=O)c1ccccc1C2=O,"inconclusive: 0.231 µM [rising, full curve]",
CCC(=O)N1CCc2cc(S(=O)(=O)Nc3ccc4c(c3)OCCO4)ccc21,,inconclusive: -23.7%
N#Cc1c(NC(=O)CSc2ncn[nH]2)sc2c1CCCC2,active: 23.1 µM,
Cc1nn(-c2ccccc2)c2c1C1(C(=O)N(C)c3ccccc31)N(c1ccccc1)C(=O)N2 (configuration not stated),"inconclusive: 14.1 µM [falling, single point]",
CCCCCCC(=O)NNC(=O)CC(=O)Nc1ccccc1C(=O)O,,inconclusive: 1.03%
CCc1c(-c2ccccc2)nc2ccccc2c1C(=O)NCc1ccc(C)cc1,,inactive
Cc1cc(C)cc(NS(=O)(=O)c2ccc3[nH]cc(C(=O)NCc4ccccc4Cl)c(=O)c3c2)c1,,inconclusive: -17.7%
CC(C)(c1ccccc1)c1ccc(OCCCN2CCNCC2)cc1,"inconclusive: 35.5 µM [falling, single point]",

Structure (SMILES),Potency,"activity change, negative = inhibition"
COc1ccc(-c2nc(S(=O)(=O)c3ccc(C)cc3)c(N3CCCC3)o2)cc1,,inconclusive: 7.4%
COc1ccc(NS(=O)(=O)c2cccc(NC(=O)C3=NN(c4ccccc4)C(=O)CC3)c2)cc1,,inactive
Cc1ccc(C(F)(F)F)cc1NC(N)=S,,inconclusive: 5.31%
COCc1cc(C)nc(SCC(=O)N2CCC(C)CC2)c1C#N,,inactive
C/C(=C\c1ccccc1)C(=O)Nc1nc2ccc([N+](=O)[O-])cc2s1,,inconclusive: 5.19%
COc1ccc(CNC(=O)CN(C(=O)CCC(=O)Nc2ccccn2)c2cccc(C)c2C)cc1,,inconclusive: 7.48%
Cc1ccc(/C=C2/NC(=O)N(Cc3ccccc3F)C2=O)s1,,inconclusive: 18.8%
COc1ccc(NC(=S)NN2C(C)CCCC2C)cc1 (configuration not stated),"inconclusive: 1.84 µM [falling, partial curve, poor fit]",
COC(=O)c1ccc(Cn2nnc3c(=O)[nH]c(C4CCCN(S(=O)(=O)c5cccc(Cl)c5)C4)nc32)cc1 (configuration not stated),,inactive
COC(=O)C(Cc1ccc(OC(=O)c2ccccc2C)cc1)N1Cc2ccccc2C1=O (configuration not stated),"inconclusive: 29.1 µM [falling, single point]",
O=C(C=C1SCCS1)/C=C/c1ccco1,"inconclusive: 35.5 µM [falling, partial curve, poor fit]",
O=C(O)/C=C\C(=O)Nc1ccccc1C(=O)N1CCN(c2ccc(Cl)cc2)CC1,"inconclusive: 16.4 µM [falling, single point]",
CCOCCCNC(=S)NNC(=O)CCn1nc(C)c(Br)c1C,"inconclusive: 25.9 µM [cytotoxic, single point]",
Cc1cc(C(=O)COC(=O)CCCN2C(=O)c3ccccc3C2=O)c(C)n1C,,inconclusive: 12.4%
O=C(c1cccs1)n1nc(-c2ccco2)nc1SCc1ccccc1,"inconclusive: 29.1 µM [falling, single point]",
Cc1cnc(C(=O)Nc2ccc(F)cc2)cn1,"inconclusive: 10 µM [falling, partial curve]",
O=C(O)c1ccc(-c2nc(-c3ccccc3)c(-c3cccs3)[nH]2)cc1,,inconclusive: -28.3%
CC1CCCN(c2ccc(C(=O)Nc3ccc4c(c3)OCO4)cc2[N+](=O)[O-])C1 (configuration not stated),,inactive
CCOc1cc2c(cc1/C=C(/C#N)c1ccc(C(=O)O)cc1)OCO2,"inconclusive: 7.08 µM [rising, full curve, poor fit]",
CC(=O)Nc1ccc(S(=O)(=O)N2CCCCC2C(=O)O)cc1 (configuration not stated),,inconclusive: -1.36%
CC(C)(C)c1ccc(-c2noc(CNC(=O)c3ccco3)n2)cc1,,inconclusive: 10.1%
O=C(Nc1cccc(NC(=O)c2cccs2)c1)c1ccc(Br)o1,"inconclusive: 4.47 µM [falling, partial curve, poor fit]",
COc1ccc(NC(=S)N/C(=N/CS(=O)(=O)c2ccccc2)c2ccccc2)cc1,"inconclusive: 29.1 µM [falling, single point]",
CSc1nc2ccc(NC(=O)c3ccc(=O)[nH]c3)cc2s1,,inconclusive: 20.8%
